Experimental findings from PubChem BioAssay AID330 (DTP/NCI, 2004) are described below.

Each structure is given as a SMILES string. The list shows only some results of the screen, not a fair sample: it gathers tests that were run many times, whatever their T/C, doses with no T/C, and many T/C values between a quarter and a half above the control. Further doses and runs are listed elsewhere. T/C is the treated group as % of the vehicle group. Some entries give survivors of the animals treated and no T/C: the source holds a T/C of zero for them, seemingly a mark for toxic or unscored doses. Some survivor counts are full or nearly so, which does not show that the dose was tolerated: the source hardly ever lists a survival T/C far under the control, and the zero likely stands for such cases as well. Counts of survivors are from the toxicity check (mostly the fifth day) where no day follows; animals may have died later. Schedules are NCI's codes, read here as Q, the interval in days (D) or hours (H), X, the number of doses. For survival time, this PubChem deposit counts one and a half times the control or more as active, and values a quarter to a half above the control carry no call in these data; other NCI protocols may use other cut-offs. Some doses were run more than once; the results are listed from low to high. Some T/C values are followed by the survivors on the day toxicity was checked, most often the fifth; where none is given, no animal had died by that day.

The assay deals with P388 leukemia ip, CD2F1 mice, survival T/C. The experiment in a line: NCI In Vivo Anticancer Drug Screen. Data for tumor model P388 Leukemia (intraperitoneal) in CD2F1 (CDF1) mice. As to conditions: T/C endpoint: median survival time, higher T/C = longer survival.
Setting [1] is: dose: 25.0 mg/kg/injection, schedule: Q04DX003 (ip), vehicle: saline.
Where [2] appears, read: dose: 100.0 mg/kg/injection, schedule: Q04DX003 (ip), vehicle: saline.
Where [3] appears, read: dose: 12.5 mg/kg/injection, schedule: Q04DX003 (ip), vehicle: saline with Tween-80.
[4] abbreviates: dose: 100.0 mg/kg/injection, schedule: Q04DX003 (ip), vehicle: saline with Tween-80.
Setting [5] is: dose: 200.0 mg/kg/injection, schedule: Q04DX003 (ip), vehicle: saline with Tween-80.
[6] abbreviates: dose: 400.0 mg/kg/injection, schedule: Q04DX003 (ip), vehicle: saline with Tween-80.
The mark [7] stands for this setting: dose: 200.0 mg/kg/injection, schedule: Q01DX009 (ip), vehicle: Klucel (hydroxypropylcellulose) (HPC).
The mark [8] stands for this setting: dose: 100.0 mg/kg/injection, schedule: Q01DX009 (ip), vehicle: Klucel (hydroxypropylcellulose) (HPC).

In the case of `CN1c2cccc[c]2[Sn]([CH3])([CH3])[c]2ccccc21`, the T/C is 130 % of control (dose: 120.0 mg/kg/injection, schedule: Q01DX005 (ip), vehicle: saline with Tween-80); 127 and 135 % of control (dose: 240.0 mg/kg/injection, schedule: Q01DX005 (ip), vehicle: saline with Tween-80).

As for `CCCCCCCCCCCCCCCC[N+](C)(C)CCSCC(N)=O`, the T/C by setting is: under setting [1], 138 % of control; under setting [2], 138 % of control. Also, the survivor count is, setting by setting: under setting [2], 2 of 6; (dose: 200.0 mg/kg/injection, schedule: Q04DX003 (ip), vehicle: saline) 0 of 6.

In the case of `C=C1C(=O)C2=CC1CCC(=O)C1(C)CCC(OC(C)=O)C(C)(C)C1CC2O` (configuration not stated), the survivor count is listed as 0 of 6 (dose: 60.0 mg/kg/injection, schedule: Q01DX009 (ip), vehicle: Klucel (hydroxypropylcellulose) (HPC)) and 0 of 6 (dose: 120.0 mg/kg/injection, schedule: Q01DX009 (ip), vehicle: Klucel (hydroxypropylcellulose) (HPC)).

For `CCCCCCCCCCCCCCC[N+]1([O-])CCCCC1`, the survivor count by setting is: (dose: 100.0 mg/kg/injection, schedule: Q01DX009 (ip), vehicle: saline) 3 of 6; (dose: 200.0 mg/kg/injection, schedule: Q01DX009 (ip), vehicle: saline) 0 of 6.

`COCCCNP(=S)(N1CC1)N1CC1`: the T/C by setting is: (dose: 6.25 mg/kg/injection, schedule: Q01DX009 (ip), vehicle: saline) 137 % of control; (dose: 12.0 mg/kg/injection, schedule: Q04DX003 (ip), vehicle: saline) 145 % of control; under setting [3], 147 % of control. The survivor count (dose: 25.0 mg/kg/injection, schedule: Q01DX009 (ip), vehicle: saline) was 6 of 6; the survivor count (dose: 50.0 mg/kg/injection, schedule: Q04DX003 (ip), vehicle: saline with Tween-80) is reported as 6 of 6; the survivor count under setting [4] was 3 of 6; the survivor count under setting [5] is 6 of 6; the survivor count under setting [6] is recorded as 2 of 6.

Regarding `O=C1/C(=C/C=C/c2ccccc2)C(=S)SN1Cc1ccco1`, the survivor count under setting [7] is given as 6 of 6.

Consider `O=C(CC(=NCC(O)CN=C(CC(=O)c1ccccc1)c1ccccc1)c1ccccc1)c1ccccc1.[Ni]` (configuration not stated), for which the survivor count is reported as 6 of 6 under setting [4] and 5 of 6 under setting [6].

`CCNC(=O)OCc1c(COC(=O)NCC)c2n(c1C)CCc1ccccc1-2`: the T/C (dose: 1.56 mg/kg/injection, schedule: Q01DX009 (ip), vehicle: distilled water + Tween-80) is 125 % of control; the T/C (dose: 3.12 mg/kg/injection, schedule: Q01DX009 (ip), vehicle: distilled water + Tween-80) was 142 % of control; the T/C (dose: 6.25 mg/kg/injection, schedule: Q01DX009 (ip), vehicle: distilled water + Tween-80) was 141 % of control. In addition, the survivor count runs as follows: (dose: 25.0 mg/kg/injection, schedule: Q01DX009 (ip), vehicle: distilled water + Tween-80) 5 of 6; (dose: 50.0 mg/kg/injection, schedule: Q01DX009 (ip), vehicle: distilled water + Tween-80) 1 of 6; (dose: 100.0 mg/kg/injection, schedule: Q01DX009 (ip), vehicle: distilled water + Tween-80) 0 of 6; (dose: 200.0 mg/kg/injection, schedule: Q01DX009 (ip), vehicle: distilled water + Tween-80) 0 of 6.

For `CC1=NC(=O)C(N=O)C(=O)N1` (configuration not stated), the survivor count (dose: 400.0 mg/kg/injection, schedule: Q04DX002 (ip), vehicle: saline with Tween-80) was 0 of 6.

As to `COc1ccc(OC)c2c(NCCNCCO)cc(NCCNCCO)nc12`, the survivor count is recorded as 3 of 6 (dose: 60.0 mg/kg/injection, schedule: Q01DX005 (ip), vehicle: saline); 0 of 6 (dose: 120.0 mg/kg/injection, schedule: Q01DX005 (ip), vehicle: saline); 0 of 6 (dose: 240.0 mg/kg/injection, schedule: Q01DX005 (ip), vehicle: saline).

As for `CC(C)([CH2][Sn]([CH3])([Cl])[Cl])c1ccccc1`, the survivor count is, setting by setting: under setting [3], 3 of 6; under setting [1], 3 of 6; under setting [4], 2 of 6; under setting [5], 0 of 6; under setting [6], 0 of 6. Besides, the T/C (dose: 12.5 mg/kg/injection, schedule: Q04DX003 (ip), vehicle: saline) was 129 % of control.

Take `CC1CCCC(C)N1CC#CCNC(=O)C1CCC(=O)N1` (configuration not stated): under “dose: 200.0 mg/kg/injection, schedule: Q01DX005 (ip), vehicle: Klucel (hydroxypropylcellulose) (HPC)”, the survivor count is given as 2 of 6.

For the compound `Cc1cc2sccc2cn1`, where the note is “dose: 100.0 mg/kg/injection, schedule: Q01DX009 (ip), vehicle: saline with Tween-80”, the survivor count is listed as 4 of 6.

On to `Cc1cccc2c1/C(=C1/c3ccccc3C(=O)c3cccc(C)c31)c1ccccc1C2=O`, for which, where the note is “dose: 200.0 mg/kg/injection, schedule: Q01DX005 (ip), vehicle: Klucel + Tween-80”, the survivor count is listed as 6 of 6.

On to `COc1cc(NS(C)(=O)=O)ccc1Nc1c2ccccc2nc2cc(C(F)(F)F)c(N)cc12`, for which the T/C is 129 % of control (dose: 12.5 mg/kg/injection, schedule: Q01DX009 (ip), vehicle: Klucel (hydroxypropylcellulose) (HPC)) and 133 % of control [6 of 8 alive] (dose: 100.0 mg/kg/injection, schedule: Q04DX003 (ip), vehicle: distilled water + Tween-80). Further, the survivor count reads like this: (dose: 64.8 mg/kg/injection, schedule: Q04DX003 (ip), vehicle: water) 4 of 8; under setting [8], 5 of 6; (dose: 108.0 mg/kg/injection, schedule: Q04DX003 (ip), vehicle: water) 2 of 8; (dose: 180.0 mg/kg/injection, schedule: Q04DX003 (ip), vehicle: water) 0 of 8; under setting [7], 5 of 6; (dose: 300.0 mg/kg/injection, schedule: Q04DX003 (ip), vehicle: water) 0 of 8. In addition, the survivor count runs as follows: (dose: 400.0 mg/kg/injection, schedule: Q01DX009 (ip), vehicle: Klucel (hydroxypropylcellulose) (HPC)) 2 of 6; (dose: 500.0 mg/kg/injection, schedule: Q04DX003 (ip), vehicle: water) 0 of 8.

As for `CC(c1c[nH]c2ccccc12)N1CCCCC1` (configuration not stated), under setting [8], the survivor count is reported as 0 of 6.
